PubChem BioAssay AID504744 | Drosophila RNAi Screening Center – 2011

Screen: 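Identify dsRNAs that increase or decrease phospho-dAkt after insulin treatment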 (primary screen)
System: Drosophila Kc167 cells
Reagents: long dsRNA against Drosophila genes, 250 ng dsRNA per well of a 384-well plate
Duration: 3 days of knock-down, then overnight serum-free starvation before stimulation
Treatment: bovine insulin at 387 nM for 10 minutes after 12 h without serum
Measured: 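Per-well phospho-dAkt level from an in-cell fluorescent antibody stain, divided by a DNA-dye signal; log2 residuals turned into z-scores that take cell number into account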
Hit rule: 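Hit in the insulin screen when the two-replicate mean z-score is more extreme than plus or minus 2.5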
In all, the deposit lists about 23,000 reagents; below is an unselected part of those that have a named target and a result. In the full data, 98 (0.43%) are marked active. 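Only hit calls are given; the phospho-dAkt signals, z-scores and hit direction were not deposited.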 A plus sign joins genes that one reagent is predicted to hit.

predicted target	amplicon	call
sra	DRSC17015	inactive
CG32726	DRSC17521	inactive
Ald2	DRSC15799	inactive
CG31204	DRSC15106	inactive
ACXC	DRSC00846	inactive
CG10650	DRSC02085	inactive
CG7916	DRSC01901	inactive
kug	DRSC10911	inactive
CG17029	DRSC10240	inactive
Psc	DRSC07518	inactive
CG32278 + CG14963	DRSC22203	inactive
Cks85A	DRSC16562	inactive
btv	DRSC01615	inactive
btv	DRSC02449	inactive
CG13482	DRSC10024	inactive
Skp2	DRSC12329	inactive
CG2614	DRSC02711	inactive
CG31249	DRSC16248	inactive
CG31041	DRSC13951	inactive
Cyp4g1	DRSC18459	inactive
bcn92	DRSC18741	inactive
Oatp58Dc	DRSC04363	inactive
pea	DRSC07120	inactive
Pi3K59F	DRSC04640	inactive
CG32214	DRSC09613	inactive
nonC	DRSC18366	inactive
nonC	DRSC18367	inactive
CG14356	DRSC14819	inactive
CG10512	DRSC11615	inactive
dgt5	DRSC07280	inactive
CG17570	DRSC01770	inactive
CG17570	DRSC03754	inactive
Acp65Aa	DRSC09663	inactive
Tdrd3	DRSC10016	inactive
Gba1b	DRSC21531	inactive
Tom20	DRSC10899	inactive
Rop	DRSC08693	inactive
CG14102	DRSC10103	inactive
CG13674	DRSC10033	inactive
Teh3	DRSC08537	inactive
Ir68a	DRSC10599	inactive
Alp1	DRSC11781	inactive
CG10459	DRSC05991	inactive
CG10459	DRSC22092	inactive
CG18789	DRSC02696	inactive
CG10214	DRSC14213	inactive
CG6362	DRSC07413	inactive
CG13137	DRSC02234	inactive
CG32281	DRSC08236	inactive
Pabp2	DRSC07501	inactive
CG12992	DRSC19512	inactive
ps	DRSC15149	inactive
ps	DRSC15151	inactive
ps	DRSC15152	inactive
ps	DRSC16388	inactive
CG33225	DRSC03881	inactive
CG14085	DRSC10089	inactive
CG13516	DRSC04159	inactive

Continued, starting with the last 7 of the part before.
predicted target	amplicon	call
ps	DRSC15149	inactive
ps	DRSC15151	inactive
ps	DRSC15152	inactive
ps	DRSC16388	inactive
CG33225	DRSC03881	inactive
CG14085	DRSC10089	inactive
CG13516	DRSC04159	inactive
Cpsf100	DRSC14146	inactive
yellow-c + CIAPIN1	DRSC01898	inactive
cuff	DRSC06315	inactive
CG34135	DRSC12702	inactive
CG32259	DRSC08082	inactive
Nsf2	DRSC22104	inactive
MED17	DRSC16889	inactive
Ugt36A1 + CG15418	DRSC00432	inactive
E(spl)m2-BFM	DRSC16991	inactive
Obp58b	DRSC04161	inactive
Cib2	DRSC04535	inactive
CG30278	DRSC22787	inactive
CG8138	DRSC16386	inactive
Rab27	DRSC18567	inactive
Pkcdelta	DRSC19356	inactive
Pkcdelta	DRSC19399	inactive
Fbxl7	DRSC15553	inactive
CG10116	DRSC09700	inactive
Cyp4p3	DRSC07374	inactive
CG14298	DRSC14777	inactive
CG3529	DRSC10369	inactive
Tsen2	DRSC01557	inactive
CG4744	DRSC06887	inactive
CG32638	DRSC18968	inactive
RpL37A	DRSC02899	inactive
GC	DRSC08396	inactive
CG15772	DRSC18078	inactive
CG6282	DRSC10616	inactive
Prp38	DRSC07060	inactive
Polr1D + DCTN6-p27	DRSC02094	inactive
RpS20	DRSC16836	inactive
CG18139 (retired record) + Hmx	DRSC15307	inactive
rtet	DRSC14160	inactive
btsz	DRSC14982	inactive
btsz	DRSC16231	inactive
CG16741	DRSC06622	inactive
kon	DRSC02033	inactive
RagC-D	DRSC07239	inactive
GstE9	DRSC06679	inactive
CG3437	DRSC10366	inactive
CG7943	DRSC16351	inactive
CG42720 (retired record)	DRSC22549	inactive
CG34256	DRSC09582	inactive
ft	DRSC00819	inactive
Ir75c	DRSC10190	inactive
PH4alphaPV	DRSC22400	inactive
CG6659	DRSC20003	inactive
CG14277	DRSC02380	inactive
Pdi	DRSC11250	inactive
CG4194	DRSC18520	inactive
TTLL1A	DRSC20121	inactive
CG32192	DRSC21760	inactive
dpr15	DRSC12891	inactive
dpr15	DRSC14187	inactive
dpr15	DRSC14188	inactive
CG31875	DRSC21975	inactive
CG34408	DRSC17733	inactive
CG34408	DRSC21926	inactive
nerfin-1	DRSC08729	inactive
mRpL54	DRSC04545	inactive
CG4022	DRSC10395	inactive
Polr2A	DRSC20280	inactive
CG9686	DRSC18439	inactive
CG33702	DRSC08986	inactive
Nha1	DRSC02109	inactive
mthl3	DRSC06997	inactive
par-1	DRSC05792	inactive
par-1	DRSC06098	inactive
par-1	DRSC06616	inactive
par-1	DRSC07660	inactive
par-1	DRSC07661	inactive
Tango4	DRSC19786	inactive
Snp	DRSC04524	inactive
Snp	DRSC21538	inactive
arm	DRSC18738	inactive
Hecw	DRSC18261	inactive
Hecw	DRSC18276	inactive
CG14641	DRSC12227	inactive
CG6149	DRSC10593	inactive
CG14300	DRSC14779	inactive
CG7196 (retired record)	DRSC01000	inactive
CG7196 (retired record)	DRSC03023	inactive
Argk1	DRSC08959	inactive
Argk1	DRSC09668	inactive
Argk1	DRSC10460	inactive
Argk1	DRSC21558	inactive
Argk1	DRSC22665	inactive
Lcch3	DRSC20257	inactive
Lcch3	DRSC22175	inactive
peo	DRSC05995	inactive
Alk	DRSC05918	inactive
CG13631	DRSC14632	inactive
CG34193	DRSC05665	inactive
CG6567 + CG4565	DRSC15599	inactive
ckn	DRSC06149	inactive
Cyp6v1	DRSC20565	inactive
NdufA3	DRSC18431	inactive
Ugt303B2	DRSC14198	inactive
Ugt303B2	DRSC22864	inactive
